# Screening data, single-dose tests

The values are deposited in ChEMBL (CHEMBL3988442, “University of Dundee, Small-Polar-MMV Screening Library” (2021)).

Mtb cholesterol medium: 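Phenotypic screen: M. tuberculosis growth, cholesterol and DPPC medium, 4 days; the read-out is not stated. Compounds at 50 µM. Higher reads as more growth inhibition (inferred: compounds with an IC50 in retests scored well above the rest). About 69,000 compounds were tested under these conditions; 0.54% (about 370) showed 50% or more at least once.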
Mtb glucose medium: 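Phenotypic screen: M. tuberculosis growth, glucose 7H9 medium, 3 days; the read-out is not stated. Concentration: 50 µM. Higher reads as more growth inhibition (inferred: compounds with an IC50 in retests scored well above the rest). Size under these conditions: about 69,000 compounds, about 760 of them at 50% or above in at least one test.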

The filed quantity is “Percent Effect” (%).
The record does not define 0% and 100%; most values in the screen are far below 50% and negative numbers occur (in some assays of this library far below -100).
The compounds are a random part of those screened.
Two or more numbers in one place are separate tests of the same structure; such repeats can differ widely.

| # | compound | Mtb cholesterol medium | Mtb glucose medium |
|---|---|---|---|
| 1 | `CCN1CC2(CCC1=O)CCN(CCc1nccn1C)CC2` | -31.42 | -21.51 |
| 2 | `c1csc(-c2noc(CCCN3CCCC3Cn3cccn3)n2)c1` (centres unmarked) | 25.15 | 18.97 |
| 3 | `CCSc1ccc(NC(=O)NC(C)c2ccncc2)cn1` (centres unmarked) | 14.26 | 0.5118 |
| 4 | `CCN1CCC(NC(=O)CN2CC(n3nc(C)cc3C)C2)CC1` | -8.48 | 2.215 |
| 5 | `[H][C@]12CC[C@]([H])(CN(C(=O)c3cccnc3)C1)N(C(=O)CN1CCOC1=O)C2` | 7.709 | -11.28 |
| 6 | `O=C(O)c1cc(-c2ccn(CC3CC3)n2)n2ccccc12` | 23.84 | 21.99 & 33.15 |
| 7 | `OC(COCc1cccs1)CSc1nnc2ccccn12` (centres unmarked) | -9.86 | 6.948 |
| 8 | `[H][C@@]12CCN(Cc3ccco3)CC[C@]1([H])[C@@H](COCC1CC1)CN(C)C2=O` | 7.616 | -9.897 & 3.043 |
| 9 | `[H][C@@]12COC[C@]1(COc1ccc(C#N)cn1)CN(Cc1ccc(C)o1)C2` | 1.031 | 7.448 |
| 10 | `CCCOC1CCCN(Cc2nc(-c3ccc(F)cc3F)oc2C)C1` (centres unmarked) | -12.29 | 15.18 |
| 11 | `N#CCCn1cnc2c(Br)cc(Br)cc2c1=O` | -20.29 & -4.593 | -9.639 |
| 12 | `CCn1cc(NC(=O)NCC(C)N(C)C)cn1` (centres unmarked) | 13.61 | -37.91 |
| 13 | `Cc1cc(NCc2ccccc2)nc2[nH]nc(N)c12` | -7.903 | 11.38 |
| 14 | `Cc1ccc(C(=O)NC2CC2)c(-n2cnnn2)c1C` | -10.31 | 7.905 |
| 15 | `COc1cc(C)sc1C(=O)NCCNc1ccccc1` | 50.84 | 65.31 & 74.25 |
| 16 | `COc1cccc(-c2ncc3c(n2)N(C)CCN(CCN(C)C)C3=O)c1` | -4.18 | 3.392 |
| 17 | `Cc1cc(N2CCC(NC(=O)C3CC3)CC2)nc(-c2ccncc2)n1` | 5.934 | 17.26 |
| 18 | `CC(C)c1nc(CCN(C)C(=O)C2COc3ccccc3C2)no1` (centres unmarked) | -3.451 & -1.402 | -4.78 |
| 19 | `CCc1nnc(CN2CCCN(C(=O)c3ccccn3)CC2)o1` | 7.424 | -5.152 |
| 20 | `O=C(O)C(F)(F)F.O=C(c1ccccn1)N1CCC2(CC1)COC(COCC1CCCC1)C2` (centres unmarked) | 0.8576 | -3.099 |
| 21 | `Cl.c1ccc(CN2CCNCC(Cc3cnccn3)C2)cc1` (centres unmarked) | 6.878 | 4.15 |
| 22 | `O=C(Nc1ccc(-c2nc3c([nH]2)CCNC3)cc1)N1CCCC1` | 19.66 | -12.53 |
| 23 | `CC(C)c1nc(CN(C)C(=O)c2ccc(CN3CCCCC3)cc2)cs1` | -0.1872 | -5.603 |
| 24 | `COC(=O)c1sccc1S(=O)(=O)NCCc1ccoc1` | 7.363 | 23.61 & 18.03 |
| 25 | `[H][C@]12CCN(c3cnccn3)C[C@]1(COC)CC[C@@H](N1CCOCC1)C2` | -48.4 | -19.59 |
| 26 | `O=C(CCOc1cccc(F)c1)N1CCCC1Cn1cccn1` (centres unmarked) | 2.825 | -8.425 |
| 27 | `Cc1nccn1[C@@H]1CC[C@@H](N(C)S(=O)(=O)c2ccc(F)cc2)[C@H]1O` | 1.016 & 13.03 | -8.382 |
| 28 | `O=C(NCc1ccc2c(c1)CCCO2)c1cn2c(n1)CNCC2` | -9.205 | -4.738 & 0.9619 |
| 29 | `O=C(c1ccccc1)N1CCCC(Nc2ccc(F)cc2)C1` (centres unmarked) | 8.897 & 1.675 | -17.56 |
| 30 | `CN(Cc1ccsc1)C(=O)Nc1cccnc1N1CCCC1` | -23.87 | -42.16 |
| 31 | `Cc1cc(CS(=O)(=O)C(C)C(=O)N(C)c2ccccc2)on1` (centres unmarked) | -6.119 | 2.119 |
| 32 | `CCN(Cc1cc(Cl)ccc1OC)Cc1nccn1C` | 25.81 | 5.964 & 17.22 |
| 33 | `CCc1nnc(C2Cc3ccccc3CN2Cc2nc(C3CC3)no2)o1` (centres unmarked) | -1.409 | 9.318 |
| 34 | `CCC(CNC(=O)Nc1cnn(CC)c1)N1CCCC1` (centres unmarked) | -12.13 | -13.82 |
| 35 | `Cn1cccc1-c1cc(C(=O)NCCc2nnc(N)s2)[nH]n1` | -21.87 | -21.12 |
| 36 | `Cc1noc(C)c1CNCc1ccccc1N(C)C1CCN(C)CC1` | 2.735 | 9.953 |
| 37 | `OCCOc1ccc(NCc2cccc3cccnc23)cn1` | -17.51 | -12.67 |
| 38 | `O=C(COCC(F)(F)F)Nc1nncs1` | -42.54 | -41.78 |
| 39 | `COCCN(Cc1cccnc1)S(=O)(=O)c1ccc(F)cc1C` | -11.29 & -8.017 | 22.47 |
| 40 | `COC1(CNC(=O)NCCOc2ccccc2)CCSC1` (centres unmarked) | -4.602 | 2.745 |
| 41 | `COc1cccc(C(=O)N(C)Cc2ncc(C)c(OC)c2C)c1OC` | 11.55 | 10.38 |
| 42 | `NC(=O)CCC1CCCN(c2ccc3c(Cl)ccnc3c2F)C1` (centres unmarked) | 7.525 | 5.484 |
| 43 | `CCOCCn1nc(C)cc1C(=O)N(C)Cc1cccc2ncccc12` | -3.34 & -4.009 | 15.58 |
| 44 | `NC(=O)c1cc(C2CC2)nc2ccc(F)cc12` | -5.45 | 11.91 |
| 45 | `CCC(Oc1ccc(N(C)S(C)(=O)=O)cc1)C(N)=O` (centres unmarked) | 1.866 | 11.57 |
| 46 | `CC(C)C(C)(C#N)NC(=O)Cn1cc(C(N)=O)c(-c2ccccc2)n1` (centres unmarked) | 0.9253 | 8.205 |
| 47 | `CCCn1ccc2ccc(NC(=O)N(C)CCOC)cc21` | -3.224 | 1.943 & -6.384 |
| 48 | `CC(=O)NCc1noc2c1CN(Cc1cnn(C)c1)CC2` | -20.58 | 0.3226 & -5.495 |
| 49 | `Cc1nn(C)cc1CN1CCCC(n2c(=O)oc3ccccc32)C1` (centres unmarked) | -18.89 & 7.269 | 0.9234 |

The last 5 entries again:

CCC(Oc1ccc(N(C)S(C)(=O)=O)cc1)C(N)=O (centres unmarked) gave Mtb cholesterol medium: 1.866%; Mtb glucose medium: 11.57%.
CC(C)C(C)(C#N)NC(=O)Cn1cc(C(N)=O)c(-c2ccccc2)n1 (centres unmarked) gave Mtb cholesterol medium: 0.9253%; Mtb glucose medium: 8.205%.
CCCn1ccc2ccc(NC(=O)N(C)CCOC)cc21 gave Mtb cholesterol medium: -3.224%; Mtb glucose medium: 1.943% & -6.384%.
CC(=O)NCc1noc2c1CN(Cc1cnn(C)c1)CC2 gave Mtb cholesterol medium: -20.58%; Mtb glucose medium: 0.3226% & -5.495%.
Cc1nn(C)cc1CN1CCCC(n2c(=O)oc3ccccc32)C1 (centres unmarked) gave Mtb cholesterol medium: -18.89% & 7.269%; Mtb glucose medium: 0.9234%.